In PubChem BioAssay AID248 (DTP/NCI, 2004):
The list shows only some results of the screen, not a fair sample: its compounds were picked by chemical class. Other doses and runs of a compound may be missing. T/C is the treated group as % of the vehicle group. Some entries give survivors of the animals treated and no T/C: the source holds a T/C of zero for them, seemingly a mark for toxic or unscored doses. Some survivor counts are full or nearly so, which does not show that the dose was tolerated: survival well below the control is almost never listed, so the zero probably covers shortened survival too. Survivors were counted at the toxicity check, usually on the fifth day, unless a day is given; later deaths do not show. Schedule codes are those of the source, read here as Q, the interval in days (D) or hours (H), X, the number of doses. Where survival is the endpoint, the PubChem record calls one and a half times the control and up active, and a quarter to a half above the control has no call in these data; cut-offs in other NCI protocols can differ. Some schedules carry Z or #; the key to these is not given. Some doses were run more than once; the values are given in rising order. Some T/C values are marked as having no survivor count here; that says nothing about deaths at the dose. Some T/C values carry the count of animals alive at the toxicity check (mostly the fifth day); without a count or a note in brackets, all were alive then.

Test system: L1210 leukemia ip in BDF1 mice, survival T/C
Experiment: NCI In Vivo Anticancer Drug Screen. Data for tumor model L1210 Leukemia (intraperitoneal) in B6D2F1 (BDF1) mice
Settings: T/C endpoint: mean survival time, higher T/C = longer survival
[1] = dose: 5.0 mg/kg/injection, schedule: Q01DX001 (ip), vehicle: saline
[2] = dose: 10.0 mg/kg/injection, schedule: Q01DX001 (ip), vehicle: saline
[3] = dose: 20.0 mg/kg/injection, schedule: Q01DX001 (ip), vehicle: saline
[4] = dose: 40.0 mg/kg/injection, schedule: Q01DX001 (ip), vehicle: saline
[5] = dose: 100.0 mg/kg/injection, schedule: Q04DX003 (ip), vehicle: Klucel (hydroxypropylcellulose) (HPC)
[6] = dose: 200.0 mg/kg/injection, schedule: Q04DX003 (ip), vehicle: Klucel (hydroxypropylcellulose) (HPC)
[7] = dose: 400.0 mg/kg/injection, schedule: Q04DX003 (ip), vehicle: Klucel (hydroxypropylcellulose) (HPC)

NC1CCCCC1.O=P(O)(Nc1ccccc1)N(CCCl)CCCl
T/C (dose: 10.0 mg/kg/injection, schedule: Q01DX Z (ip), vehicle: saline): 90 % of control
T/C (dose: 20.0 mg/kg/injection, schedule: Q01DX Z (ip), vehicle: saline): 95 % of control
T/C (dose: 40.0 mg/kg/injection, schedule: Q01DX Z (ip), vehicle: saline): 88 % of control
T/C (dose: 80.0 mg/kg/injection, schedule: Q01DX Z (ip), vehicle: saline): 90 and 98 % of control
T/C (dose: 160.0 mg/kg/injection, schedule: Q01DX Z (ip), vehicle: saline): 105 % of control
T/C (dose: 320.0 mg/kg/injection, schedule: Q01DX Z (ip), vehicle: saline): 108 % of control

CCP(=O)(Sc1ccccc1)Sc1ccccc1
T/C [1]: 100 % of control [survivor count not shown]
T/C [2]: 103 % of control [survivor count not shown]
T/C [3]: 105 % of control [survivor count not shown]
T/C [4]: 102 % of control [survivor count not shown]

CCN(CC)CCOC(=O)C(O)(c1ccccc1)c1ccc(C)c(C)c1C (stereo not drawn)
T/C (dose: 9.38 mg/kg/injection, schedule: Q01DX001 (ip), vehicle: steroid suspending solution): 100 % of control
T/C (dose: 18.75 mg/kg/injection, schedule: Q01DX001 (ip), vehicle: steroid suspending solution): 96 % of control
T/C (dose: 37.5 mg/kg/injection, schedule: Q01DX001 (ip), vehicle: steroid suspending solution): 98 % of control

O=C(Nc1c([N+](=O)[O-])cc([N+](=O)[O-])cc1[N+](=O)[O-])C(=O)Nc1c([N+](=O)[O-])cc([N+](=O)[O-])cc1[N+](=O)[O-]
T/C (dose: 100.0 mg/kg/injection, schedule: Q01DX001 (ip), vehicle: saline with Tween-80): 86 % of control [survivor count not shown]
T/C (dose: 100.0 mg/kg/injection, schedule: Q04DX003 (ip), vehicle: other): 88 % of control [survivor count not shown]
T/C (dose: 200.0 mg/kg/injection, schedule: Q01DX001 (ip), vehicle: saline with Tween-80): 91 % of control [survivor count not shown]
T/C (dose: 200.0 mg/kg/injection, schedule: Q04DX003 (ip), vehicle: other): 89 % of control [survivor count not shown]
T/C (dose: 400.0 mg/kg/injection, schedule: Q01DX001 (ip), vehicle: saline with Tween-80): 89 % of control [survivor count not shown]
T/C (dose: 400.0 mg/kg/injection, schedule: Q04DX003 (ip), vehicle: other): 91 % of control [survivor count not shown]

O=[N+]([O-])c1cc([N+](=O)[O-])c(/C=C/c2ccccc2)c([N+](=O)[O-])c1
T/C (dose: 25.0 mg/kg/injection, schedule: Q01DX009 (ip), vehicle: gum acacia): 95 % of control
T/C (dose: 25.0 mg/kg/injection, schedule: Q04DX003 (ip), vehicle: Klucel (hydroxypropylcellulose) (HPC)): 91 % of control
T/C (dose: 50.0 mg/kg/injection, schedule: Q01DX009 (ip), vehicle: gum acacia): 95 % of control
T/C (dose: 50.0 mg/kg/injection, schedule: Q04DX003 (ip), vehicle: Klucel (hydroxypropylcellulose) (HPC)): 97 % of control
T/C (dose: 100.0 mg/kg/injection, schedule: Q01DX009 (ip), vehicle: gum acacia): 91 % of control
T/C [5]: 94 % of control
survivor count [5]: 6 of 6
survivor count [6]: 6 of 6
T/C [7]: 87 % of control

O=[N+]([O-])c1c(Cl)c(O)c(Cl)c([N+](=O)[O-])c1Nc1c([N+](=O)[O-])c(Cl)c(O)c(Cl)c1[N+](=O)[O-]
T/C (dose: 75.0 mg/kg/injection, schedule: Q01DX001 (ip), vehicle: carboxymethylcellulose (CMC)): 102 % of control
T/C (dose: 150.0 mg/kg/injection, schedule: Q01DX001 (ip), vehicle: carboxymethylcellulose (CMC)): 111 % of control
survivor count (dose: 300.0 mg/kg/injection, schedule: Q01DX001 (ip), vehicle: carboxymethylcellulose (CMC)): 1 of 6

CC(=O)N/N=C(\N)N[N+](=O)[O-]
T/C (dose: 25.0 mg/kg/injection, schedule: Q01DX009 (ip), vehicle: saline): 102 % of control [survivor count not shown]
T/C (dose: 50.0 mg/kg/injection, schedule: Q01DX009 (ip), vehicle: saline): 96 [survivor count not shown] and 101 % of control [survivor count not shown]
T/C (dose: 100.0 mg/kg/injection, schedule: Q01DX009 (ip), vehicle: saline): 101 [survivor count not shown] and 120 % of control [survivor count not shown]
T/C (dose: 200.0 mg/kg/injection, schedule: Q01DX009 (ip), vehicle: saline): 93 [survivor count not shown] and 101 % of control [survivor count not shown]

CC1CNP(=O)(N(CCCl)CCCl)OC1 (stereo not drawn)
T/C (dose: 22.0 mg/kg/injection, schedule: Q01DX Z (ip), vehicle: methylcellulose (MC)): 98 % of control
T/C (dose: 44.0 mg/kg/injection, schedule: Q01DX Z (ip), vehicle: methylcellulose (MC)): 103 % of control
T/C (dose: 88.0 mg/kg/injection, schedule: Q01DX Z (ip), vehicle: methylcellulose (MC)): 128 % of control [5 of 6 alive]
T/C (dose: 175.0 mg/kg/injection, schedule: Q01DX Z (ip), vehicle: methylcellulose (MC)): 118 % of control [4 of 6 alive]

COc1cc(NC(=O)NP(=O)(Nc2ccccc2)Nc2ccccc2)c(OC)cc1Cl
T/C (dose: 50.0 mg/kg/injection, schedule: Q01DX001 (ip), vehicle: alcohol): 102 % of control
T/C (dose: 100.0 mg/kg/injection, schedule: Q01DX001 (ip), vehicle: alcohol): 102 % of control
T/C (dose: 200.0 mg/kg/injection, schedule: Q01DX001 (ip), vehicle: alcohol): 102 % of control
T/C (dose: 400.0 mg/kg/injection, schedule: Q01DX001 (ip), vehicle: alcohol): 96 % of control

O=[N+]([O-])c1cc([N+](=O)[O-])c(NN2CCCCC2)c([N+](=O)[O-])c1
T/C (dose: 100.0 mg/kg/injection, schedule: Q01DX009 (ip), vehicle: Klucel (hydroxypropylcellulose) (HPC)): 95 % of control [survivor count not shown]
T/C [5]: 91 % of control [survivor count not shown]
T/C (dose: 200.0 mg/kg/injection, schedule: Q01DX009 (ip), vehicle: Klucel (hydroxypropylcellulose) (HPC)): 97 % of control [survivor count not shown]
T/C [6]: 89 % of control [survivor count not shown]
T/C (dose: 400.0 mg/kg/injection, schedule: Q01DX009 (ip), vehicle: Klucel (hydroxypropylcellulose) (HPC)): 93 % of control [survivor count not shown]
T/C [7]: 92 % of control [survivor count not shown]

CCN(CCCl)Cc1csc2ccccc12
T/C [1]: 107 % of control
T/C [2]: 96 % of control
T/C [3]: 102 % of control
T/C [4]: 112 % of control
survivor count (dose: 80.0 mg/kg/injection, schedule: Q01DX001 (ip), vehicle: saline): 1 of 4
survivor count (dose: 100.0 mg/kg/injection, schedule: Q01DX001 (ip), vehicle: saline): 0 of 4
survivor count (dose: 200.0 mg/kg/injection, schedule: Q01DX001 (ip), vehicle: saline): 0 of 4
survivor count (dose: 400.0 mg/kg/injection, schedule: Q01DX001 (ip), vehicle: saline): 0 of 4

CCP1(=O)Nc2ccccc2N1
T/C (dose: 100.0 mg/kg/injection, schedule: Q04DX003 (ip), vehicle: saline with Tween-80): 94 % of control [survivor count not shown]
T/C (dose: 200.0 mg/kg/injection, schedule: Q04DX003 (ip), vehicle: saline with Tween-80): 100 % of control [survivor count not shown]
T/C (dose: 400.0 mg/kg/injection, schedule: Q04DX003 (ip), vehicle: saline with Tween-80): 104 % of control [survivor count not shown]

C1CN1.NC(=O)CC(N)C(=O)O (stereo not drawn)
T/C (dose: 100.0 mg/kg/injection, schedule: Q04DX003 (ip), vehicle: saline): 104 % of control
T/C (dose: 200.0 mg/kg/injection, schedule: Q04DX003 (ip), vehicle: saline): 112 % of control
survivor count (dose: 400.0 mg/kg/injection, schedule: Q04DX003 (ip), vehicle: saline): 0 of 6

O=C(CCCN1CCC(OC(=O)C(O)(c2ccccc2)c2ccccc2)CC1)c1ccc(F)cc1
T/C [5]: 97 % of control
T/C [7]: 102 % of control

O=c1[nH]nc([N+](=O)[O-])[nH]1
T/C (dose: 100.0 mg/kg/injection, schedule: Q01DX009 (ip), vehicle: saline with Tween-80): 88 % of control [survivor count not shown]
T/C (dose: 200.0 mg/kg/injection, schedule: Q01DX009 (ip), vehicle: saline with Tween-80): 89 % of control [survivor count not shown]
T/C (dose: 400.0 mg/kg/injection, schedule: Q01DX009 (ip), vehicle: saline with Tween-80): 94 % of control [survivor count not shown]
